Assay results: paper PMC4325971, “Sex-Differences in Renal Expression of Selected Transporters and Transcription Factors in Lean and Obese Zucker Spontaneously Hypertensive Fatty Rats” (Journal of Diabetes Research, 2015)

Target: T1, human OAT2 (organic anion transporter 2) (Homo sapiens, UniProt Q9Y694)
T1 construct: gene SLC22A7; full-length human OAT2 stably transfected in HEK293 cells (PortaCellTec Biosciences)
T1 sequence (Q9Y694 1-548): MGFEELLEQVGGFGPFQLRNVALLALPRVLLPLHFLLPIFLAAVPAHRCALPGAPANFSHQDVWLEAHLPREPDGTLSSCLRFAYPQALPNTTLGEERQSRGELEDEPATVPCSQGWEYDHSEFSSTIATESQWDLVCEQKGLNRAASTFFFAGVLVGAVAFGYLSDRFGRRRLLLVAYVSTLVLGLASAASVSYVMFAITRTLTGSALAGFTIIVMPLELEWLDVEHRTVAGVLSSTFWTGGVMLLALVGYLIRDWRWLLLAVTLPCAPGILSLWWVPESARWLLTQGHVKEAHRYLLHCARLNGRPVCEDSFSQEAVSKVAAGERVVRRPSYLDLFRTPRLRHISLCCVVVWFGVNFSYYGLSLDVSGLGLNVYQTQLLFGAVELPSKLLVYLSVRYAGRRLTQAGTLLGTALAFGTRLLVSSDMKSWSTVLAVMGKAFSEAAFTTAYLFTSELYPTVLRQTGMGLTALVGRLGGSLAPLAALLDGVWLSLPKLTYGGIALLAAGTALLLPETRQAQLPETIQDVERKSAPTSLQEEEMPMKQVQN
Assay: inhibition of [3H]cGMP uptake in OAT2-HEK293 cells
Type: cell-based
Details: 10 μM cGMP (0.1 μM [3H]cGMP + 9.9 μM unlabeled), 5 min, 37°C, pH 7.4

NS(=O)(=O)c1cc(C(=O)O)c(NCc2ccco2)cc1Cl [furosemide]
IC50: 10.9 ± 0.6 µM
